Values from PubChem BioAssay AID1259254 (NCATS, 2017).
Aim: 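Genome-wide screen for genes that prevent DNA re-replication in cancer cells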 (primary screen). System: human HCT116 colorectal cancer cells. Reagent: single siRNA against human genes. Timing: 3 days. Measurement: 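Nuclei stained with Hoechst and imaged; cell-cycle phase assigned by DNA content; G2 share scaled per plate, non-targeting siRNA 0%, GMNN siRNA 100%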. Reading the numbers: G2 robust z-score: higher = more G2 cells, more excess DNA replication. Hit rule: 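Active siRNAs have a G2 robust z of 5 or more median absolute deviations over the median, which in these data means about 38% or higher of GMNN control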.
This is one part, drawn at random, of about 59,000 reagents. Of all reagents, about 1,550 (2.6%) got an active call. 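G2 share is only a proxy for re-replication; each gene was hit by three separate siRNAs, and active genes were retested.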 The numbers tell different reagents against one gene apart. Further read-outs or replicates are left out here. The record does not give: the amount of reagent.

The opening 2 entries, ahead of the listing:
Gene,siRNA no.,G2 robust z-score,activity call
GLYATL2 (glycine-N-acyltransferase like 2),1,-1.23,inactive
GLYATL2 (glycine-N-acyltransferase like 2),2,0.749,inactive

The listing, from the first entry:
Gene,siRNA no.,G2 robust z-score,activity call
GLYATL2 (glycine-N-acyltransferase like 2),1,-1.23,inactive
GLYATL2 (glycine-N-acyltransferase like 2),2,0.749,inactive
GLYATL2 (glycine-N-acyltransferase like 2),3,1.04,inactive
TMEM214 (transmembrane protein 214),1,0.0754,inactive
TMEM214 (transmembrane protein 214),2,0.332,inactive
TMEM214 (transmembrane protein 214),3,3.82,inactive
PTH2R (parathyroid hormone 2 receptor),1,-0.983,inactive
PTH2R (parathyroid hormone 2 receptor),2,0.0566,inactive
PTH2R (parathyroid hormone 2 receptor),3,-0.36,inactive
SLC29A2,1,-0.699,inactive
SLC29A2,2,-1.26,inactive
SLC29A2,3,0.862,inactive
SUMF1 (sulfatase modifying factor 1),1,0.949,inactive
SUMF1 (sulfatase modifying factor 1),2,-0.404,inactive
SUMF1 (sulfatase modifying factor 1),3,1.09,inactive
LRP1 (LDL receptor related protein 1),1,-0.337,inactive
LRP1 (LDL receptor related protein 1),2,9.72,active
LRP1 (LDL receptor related protein 1),3,0.221,inactive
OR13D1 (olfactory receptor family 13 subfamily D member 1),1,-0.632,inactive
OR13D1 (olfactory receptor family 13 subfamily D member 1),2,0.227,inactive
OR13D1 (olfactory receptor family 13 subfamily D member 1),3,0.971,inactive
"ARAF (A-Raf proto-oncogene, serine/threonine kinase)",1,-0.693,inactive
"ARAF (A-Raf proto-oncogene, serine/threonine kinase)",2,1.2,inactive
"ARAF (A-Raf proto-oncogene, serine/threonine kinase)",3,-0.174,inactive
SEC11B,1,-0.355,inactive
SEC11B,2,6.69,active
SEC11B,3,-0.787,inactive
VSTM5 (V-set and transmembrane domain containing 5),1,-0.375,inactive
VSTM5 (V-set and transmembrane domain containing 5),2,-0.4,inactive
VSTM5 (V-set and transmembrane domain containing 5),3,-0.474,inactive
EPX (eosinophil peroxidase),1,6.55,active
EPX (eosinophil peroxidase),2,4.85,inactive
EPX (eosinophil peroxidase),3,-0.255,inactive
CDKAL1 (CDKAL1 threonylcarbamoyladenosine tRNA methylthiotransferase),1,-0.395,inactive
CDKAL1 (CDKAL1 threonylcarbamoyladenosine tRNA methylthiotransferase),2,-0.332,inactive
CDKAL1 (CDKAL1 threonylcarbamoyladenosine tRNA methylthiotransferase),3,-1.33,inactive
LOC731075,1,-0.439,inactive
LOC731075,2,-0.216,inactive
LOC731075,3,0.508,inactive
HDAC7 (histone deacetylase 7),1,0.0312,inactive
HDAC7 (histone deacetylase 7),2,8.11,active
HDAC7 (histone deacetylase 7),3,-0.698,inactive
OR10H3 (olfactory receptor family 10 subfamily H member 3),1,0.0849,inactive
OR10H3 (olfactory receptor family 10 subfamily H member 3),2,0.108,inactive
OR10H3 (olfactory receptor family 10 subfamily H member 3),3,-0.0748,inactive
IL17D (interleukin 17D),1,0.204,inactive
IL17D (interleukin 17D),2,0.234,inactive
IL17D (interleukin 17D),3,-0.675,inactive
CEACAM18 (CEA cell adhesion molecule 18),1,0.00927,inactive
CEACAM18 (CEA cell adhesion molecule 18),2,2.32,inactive
CEACAM18 (CEA cell adhesion molecule 18),3,-0.448,inactive
LOC643936 (retired record),1,-0.497,inactive
LOC643936 (retired record),2,0.392,inactive
LOC643936 (retired record),3,0.307,inactive
SAFB2 (scaffold attachment factor B2),1,0.359,inactive
SAFB2 (scaffold attachment factor B2),2,0.505,inactive
NAV3 (neuron navigator 3),1,-0.0473,inactive
NAV3 (neuron navigator 3),2,0.281,inactive
NAV3 (neuron navigator 3),3,0.022,inactive
CD3D (CD3 delta subunit of T-cell receptor complex),1,-0.872,inactive
CD3D (CD3 delta subunit of T-cell receptor complex),2,-0.89,inactive
CD3D (CD3 delta subunit of T-cell receptor complex),3,-0.105,inactive
SUCLA2P1 (SUCLA2 pseudogene 1),1,-0.476,inactive
SUCLA2P1 (SUCLA2 pseudogene 1),2,0.55,inactive
SUCLA2P1 (SUCLA2 pseudogene 1),3,0.227,inactive
CLDND1 (claudin domain containing 1),1,0.244,inactive
CLDND1 (claudin domain containing 1),2,0.867,inactive
CLDND1 (claudin domain containing 1),3,-0.139,inactive
LINC02908 (long independently transcribed non-coding RNA 2908),1,-0.481,inactive
LINC02908 (long independently transcribed non-coding RNA 2908),2,-0.104,inactive
LINC02908 (long independently transcribed non-coding RNA 2908),3,2.41,inactive
APCDD1L-DT (APCDD1L divergent transcript),1,-0.232,inactive
APCDD1L-DT (APCDD1L divergent transcript),2,0.442,inactive
APCDD1L-DT (APCDD1L divergent transcript),3,1.36,inactive
PTPN1 (protein tyrosine phosphatase non-receptor type 1),1,-1.41,inactive
PTPN1 (protein tyrosine phosphatase non-receptor type 1),2,0.586,inactive
PTPN1 (protein tyrosine phosphatase non-receptor type 1),3,1.18,inactive
STRN3 (striatin 3),1,0.156,inactive
STRN3 (striatin 3),2,7.69,active
STRN3 (striatin 3),3,-0.217,inactive
KIF2A (kinesin family member 2A),1,-0.345,inactive
KIF2A (kinesin family member 2A),2,3.96,inactive
KIF2A (kinesin family member 2A),3,-0.773,inactive
CNPY4 (canopy FGF signaling regulator 4),1,-0.363,inactive
CNPY4 (canopy FGF signaling regulator 4),2,-0.0729,inactive
CNPY4 (canopy FGF signaling regulator 4),3,5.35,active
KIN (Kin17 DNA and RNA binding protein),1,0.591,inactive
KIN (Kin17 DNA and RNA binding protein),2,-0.436,inactive
KIN (Kin17 DNA and RNA binding protein),3,-0.424,inactive
